Data from publication PMC9477392 (2022).
No constants are given. Whether binding was seen depends on the method and setting.

Molecular target: T1, Atox1 (Homo sapiens, UniProt O00244)
T1 chain: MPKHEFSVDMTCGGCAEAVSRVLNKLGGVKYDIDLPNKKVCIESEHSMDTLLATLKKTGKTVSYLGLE
Test: SEC; Atox1 (50 µM) loaded with Cu(I) in a 1:1 ratio, then mixed with apo Memo1 (20 µM); absorbance at 255 and 280 nm; both purified

B1: mediator of ERBB2-driven cell motility 1 (Memo1) (protein, UniProt Q9Y316 4-297)
chain: RVVCREASHAGSWYTASGPQLNAQLEGWLSQVQSTKRPARAIIAPHAGYTYCGSCAAHAYKQVDPSITRRIFILGPSHHVPLSRCALSSVDIYRTPLYDLRIDQKIYGELWKTGMFERMSLQTDEDEHSIEMHLPYTAKAMESHKDEFTIIPVLVGALSESKEQEFGKLFSKYLADPSNLFVVSSDFCHWGQRFRYSYYDESQGEIYRSIEHLDKMGMSIIEQLDPVSFSNYLKKYHNTICGRHPIGVLLNAITELQKNGMNMSFSFLNYAQSSQCRNWQDSSVSYAAGALTVH
binding: no binding (tested: 50 µM Cu(I)-Atox1, 20 µM apo Memo1)
